Results published in the supplement of paper PMC12067093, “Discovery and optimisation of a covalent ligand for TRIM25 and its application to targeted protein ubiquitination” (Chemical Science, 2025).
Some of the results follow.

Chains of the proteins cited; added tags and fusions are not shown. Lines headed by an entry give the natural chain unless they say otherwise; changes in a name come on top.
UniProt Q13315: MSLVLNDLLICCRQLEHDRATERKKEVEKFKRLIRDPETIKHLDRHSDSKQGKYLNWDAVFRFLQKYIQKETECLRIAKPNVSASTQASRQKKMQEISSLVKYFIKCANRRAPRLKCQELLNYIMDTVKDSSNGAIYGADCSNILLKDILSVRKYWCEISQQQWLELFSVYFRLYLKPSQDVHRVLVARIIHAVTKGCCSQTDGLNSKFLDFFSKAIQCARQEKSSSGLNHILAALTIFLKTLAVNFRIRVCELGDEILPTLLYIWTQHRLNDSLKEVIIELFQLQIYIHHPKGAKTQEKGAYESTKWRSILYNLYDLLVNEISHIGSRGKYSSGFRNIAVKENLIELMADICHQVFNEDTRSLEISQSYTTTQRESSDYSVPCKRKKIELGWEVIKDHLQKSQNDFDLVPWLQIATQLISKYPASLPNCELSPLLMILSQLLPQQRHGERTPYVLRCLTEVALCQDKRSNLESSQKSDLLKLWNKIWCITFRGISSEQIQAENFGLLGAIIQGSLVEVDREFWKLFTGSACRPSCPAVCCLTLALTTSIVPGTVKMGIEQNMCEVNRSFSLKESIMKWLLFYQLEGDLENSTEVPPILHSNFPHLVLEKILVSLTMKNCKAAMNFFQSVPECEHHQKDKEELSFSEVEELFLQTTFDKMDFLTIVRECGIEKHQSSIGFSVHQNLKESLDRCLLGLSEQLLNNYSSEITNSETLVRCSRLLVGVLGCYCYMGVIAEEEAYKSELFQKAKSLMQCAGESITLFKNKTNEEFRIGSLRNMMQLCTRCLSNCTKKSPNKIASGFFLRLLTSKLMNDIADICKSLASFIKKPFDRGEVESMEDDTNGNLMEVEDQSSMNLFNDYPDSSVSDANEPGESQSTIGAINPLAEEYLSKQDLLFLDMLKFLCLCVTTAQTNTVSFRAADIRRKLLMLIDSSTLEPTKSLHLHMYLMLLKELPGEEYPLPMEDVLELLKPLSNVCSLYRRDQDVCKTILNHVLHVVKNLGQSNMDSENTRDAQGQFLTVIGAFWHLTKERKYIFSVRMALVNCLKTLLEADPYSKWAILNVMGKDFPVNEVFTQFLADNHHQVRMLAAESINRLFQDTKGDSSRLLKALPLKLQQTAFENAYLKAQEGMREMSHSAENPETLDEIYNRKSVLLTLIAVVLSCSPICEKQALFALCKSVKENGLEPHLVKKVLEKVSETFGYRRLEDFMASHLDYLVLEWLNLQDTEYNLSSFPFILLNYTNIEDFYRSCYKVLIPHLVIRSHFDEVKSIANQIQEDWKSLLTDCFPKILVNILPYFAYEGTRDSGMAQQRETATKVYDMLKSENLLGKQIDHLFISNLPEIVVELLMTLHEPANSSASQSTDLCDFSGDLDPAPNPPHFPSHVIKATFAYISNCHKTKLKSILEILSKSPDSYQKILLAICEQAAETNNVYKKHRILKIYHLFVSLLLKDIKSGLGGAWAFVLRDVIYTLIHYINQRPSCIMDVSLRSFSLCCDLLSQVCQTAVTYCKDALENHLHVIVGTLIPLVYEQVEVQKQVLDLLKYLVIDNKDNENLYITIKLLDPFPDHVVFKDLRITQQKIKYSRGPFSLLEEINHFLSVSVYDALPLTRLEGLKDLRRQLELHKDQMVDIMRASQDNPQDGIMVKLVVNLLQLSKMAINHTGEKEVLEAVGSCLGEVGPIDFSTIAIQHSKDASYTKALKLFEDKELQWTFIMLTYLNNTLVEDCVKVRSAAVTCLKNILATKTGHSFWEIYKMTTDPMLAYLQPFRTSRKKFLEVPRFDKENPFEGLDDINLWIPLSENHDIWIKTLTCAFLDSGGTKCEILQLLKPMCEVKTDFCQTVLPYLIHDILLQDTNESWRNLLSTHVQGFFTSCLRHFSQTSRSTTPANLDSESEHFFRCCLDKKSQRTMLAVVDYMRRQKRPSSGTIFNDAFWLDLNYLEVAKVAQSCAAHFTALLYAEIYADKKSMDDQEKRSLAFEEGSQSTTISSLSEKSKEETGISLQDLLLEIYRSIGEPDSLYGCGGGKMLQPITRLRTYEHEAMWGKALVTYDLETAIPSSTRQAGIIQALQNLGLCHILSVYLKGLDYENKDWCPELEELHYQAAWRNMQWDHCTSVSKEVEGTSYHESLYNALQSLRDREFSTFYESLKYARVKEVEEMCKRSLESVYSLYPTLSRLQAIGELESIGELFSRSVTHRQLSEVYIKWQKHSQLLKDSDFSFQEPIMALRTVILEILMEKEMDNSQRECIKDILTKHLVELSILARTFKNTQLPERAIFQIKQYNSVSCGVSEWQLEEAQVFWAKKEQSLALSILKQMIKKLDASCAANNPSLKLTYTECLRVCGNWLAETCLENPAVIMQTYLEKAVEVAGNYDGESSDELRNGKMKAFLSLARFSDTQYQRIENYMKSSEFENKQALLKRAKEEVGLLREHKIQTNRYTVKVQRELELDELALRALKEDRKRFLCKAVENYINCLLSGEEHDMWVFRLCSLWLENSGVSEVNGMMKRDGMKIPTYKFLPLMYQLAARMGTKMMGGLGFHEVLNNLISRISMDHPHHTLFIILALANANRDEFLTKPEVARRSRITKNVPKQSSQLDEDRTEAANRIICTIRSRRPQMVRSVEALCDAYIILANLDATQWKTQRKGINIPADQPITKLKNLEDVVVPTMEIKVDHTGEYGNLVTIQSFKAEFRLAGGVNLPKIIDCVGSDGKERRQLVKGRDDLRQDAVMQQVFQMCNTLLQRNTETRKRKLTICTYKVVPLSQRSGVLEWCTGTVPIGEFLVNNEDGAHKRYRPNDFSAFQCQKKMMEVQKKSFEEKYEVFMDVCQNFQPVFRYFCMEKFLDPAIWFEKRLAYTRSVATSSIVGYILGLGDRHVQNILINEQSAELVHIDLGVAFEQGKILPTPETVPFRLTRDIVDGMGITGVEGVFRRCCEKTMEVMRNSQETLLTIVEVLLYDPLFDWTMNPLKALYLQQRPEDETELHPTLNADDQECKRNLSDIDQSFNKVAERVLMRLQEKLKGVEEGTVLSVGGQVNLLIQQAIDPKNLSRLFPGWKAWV
UniProt Q6PL18: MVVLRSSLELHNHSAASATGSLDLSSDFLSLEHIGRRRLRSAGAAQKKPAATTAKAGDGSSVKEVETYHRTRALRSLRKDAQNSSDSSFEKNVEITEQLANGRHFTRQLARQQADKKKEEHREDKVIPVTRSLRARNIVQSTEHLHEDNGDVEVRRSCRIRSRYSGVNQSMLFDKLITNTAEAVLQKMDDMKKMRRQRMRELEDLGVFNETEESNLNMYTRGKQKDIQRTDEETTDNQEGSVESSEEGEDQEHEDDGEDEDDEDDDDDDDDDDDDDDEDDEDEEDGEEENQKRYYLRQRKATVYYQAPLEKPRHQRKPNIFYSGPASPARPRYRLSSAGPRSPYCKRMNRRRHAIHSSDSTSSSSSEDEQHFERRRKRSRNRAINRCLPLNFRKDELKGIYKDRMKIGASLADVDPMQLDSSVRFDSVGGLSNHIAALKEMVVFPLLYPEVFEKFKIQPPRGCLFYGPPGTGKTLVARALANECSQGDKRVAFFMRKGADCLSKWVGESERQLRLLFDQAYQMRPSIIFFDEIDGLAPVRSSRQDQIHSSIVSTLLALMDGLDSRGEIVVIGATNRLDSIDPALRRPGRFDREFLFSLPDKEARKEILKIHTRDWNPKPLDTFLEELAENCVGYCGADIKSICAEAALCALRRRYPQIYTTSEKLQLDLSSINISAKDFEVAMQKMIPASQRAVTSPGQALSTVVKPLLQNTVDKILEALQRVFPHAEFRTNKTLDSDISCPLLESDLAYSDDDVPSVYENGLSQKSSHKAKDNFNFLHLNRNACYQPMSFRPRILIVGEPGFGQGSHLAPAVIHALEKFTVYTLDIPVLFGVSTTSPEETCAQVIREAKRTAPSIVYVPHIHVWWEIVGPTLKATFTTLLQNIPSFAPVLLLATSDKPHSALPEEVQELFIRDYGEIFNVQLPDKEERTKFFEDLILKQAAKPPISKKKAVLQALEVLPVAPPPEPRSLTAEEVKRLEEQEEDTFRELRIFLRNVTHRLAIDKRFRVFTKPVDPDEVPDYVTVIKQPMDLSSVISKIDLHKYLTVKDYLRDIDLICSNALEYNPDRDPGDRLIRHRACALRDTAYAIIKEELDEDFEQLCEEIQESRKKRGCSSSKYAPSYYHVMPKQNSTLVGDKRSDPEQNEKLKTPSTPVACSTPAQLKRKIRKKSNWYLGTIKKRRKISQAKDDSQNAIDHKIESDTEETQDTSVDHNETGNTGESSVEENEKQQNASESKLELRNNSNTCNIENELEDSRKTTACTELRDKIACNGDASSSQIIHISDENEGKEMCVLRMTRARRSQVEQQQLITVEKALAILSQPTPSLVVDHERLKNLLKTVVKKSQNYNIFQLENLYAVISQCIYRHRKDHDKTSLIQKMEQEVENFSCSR
UniProt P17544: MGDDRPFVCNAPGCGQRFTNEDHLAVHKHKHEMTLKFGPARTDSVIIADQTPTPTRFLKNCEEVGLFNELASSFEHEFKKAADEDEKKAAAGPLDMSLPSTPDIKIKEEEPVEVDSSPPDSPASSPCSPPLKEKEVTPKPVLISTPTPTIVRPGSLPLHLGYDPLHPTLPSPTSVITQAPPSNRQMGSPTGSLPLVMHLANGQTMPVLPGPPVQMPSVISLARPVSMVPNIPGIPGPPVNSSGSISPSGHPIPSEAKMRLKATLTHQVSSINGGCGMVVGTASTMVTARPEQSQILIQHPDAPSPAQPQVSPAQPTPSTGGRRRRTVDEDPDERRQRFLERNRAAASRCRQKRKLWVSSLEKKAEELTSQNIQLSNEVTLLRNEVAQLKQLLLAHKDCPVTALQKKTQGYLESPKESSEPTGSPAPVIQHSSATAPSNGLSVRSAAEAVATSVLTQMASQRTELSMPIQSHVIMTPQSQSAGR
UniProt O94817, whole entry: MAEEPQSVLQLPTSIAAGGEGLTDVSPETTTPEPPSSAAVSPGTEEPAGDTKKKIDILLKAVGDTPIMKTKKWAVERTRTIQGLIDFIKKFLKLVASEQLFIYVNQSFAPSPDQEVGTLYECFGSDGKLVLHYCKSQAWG
UniProt Q9Y2G3: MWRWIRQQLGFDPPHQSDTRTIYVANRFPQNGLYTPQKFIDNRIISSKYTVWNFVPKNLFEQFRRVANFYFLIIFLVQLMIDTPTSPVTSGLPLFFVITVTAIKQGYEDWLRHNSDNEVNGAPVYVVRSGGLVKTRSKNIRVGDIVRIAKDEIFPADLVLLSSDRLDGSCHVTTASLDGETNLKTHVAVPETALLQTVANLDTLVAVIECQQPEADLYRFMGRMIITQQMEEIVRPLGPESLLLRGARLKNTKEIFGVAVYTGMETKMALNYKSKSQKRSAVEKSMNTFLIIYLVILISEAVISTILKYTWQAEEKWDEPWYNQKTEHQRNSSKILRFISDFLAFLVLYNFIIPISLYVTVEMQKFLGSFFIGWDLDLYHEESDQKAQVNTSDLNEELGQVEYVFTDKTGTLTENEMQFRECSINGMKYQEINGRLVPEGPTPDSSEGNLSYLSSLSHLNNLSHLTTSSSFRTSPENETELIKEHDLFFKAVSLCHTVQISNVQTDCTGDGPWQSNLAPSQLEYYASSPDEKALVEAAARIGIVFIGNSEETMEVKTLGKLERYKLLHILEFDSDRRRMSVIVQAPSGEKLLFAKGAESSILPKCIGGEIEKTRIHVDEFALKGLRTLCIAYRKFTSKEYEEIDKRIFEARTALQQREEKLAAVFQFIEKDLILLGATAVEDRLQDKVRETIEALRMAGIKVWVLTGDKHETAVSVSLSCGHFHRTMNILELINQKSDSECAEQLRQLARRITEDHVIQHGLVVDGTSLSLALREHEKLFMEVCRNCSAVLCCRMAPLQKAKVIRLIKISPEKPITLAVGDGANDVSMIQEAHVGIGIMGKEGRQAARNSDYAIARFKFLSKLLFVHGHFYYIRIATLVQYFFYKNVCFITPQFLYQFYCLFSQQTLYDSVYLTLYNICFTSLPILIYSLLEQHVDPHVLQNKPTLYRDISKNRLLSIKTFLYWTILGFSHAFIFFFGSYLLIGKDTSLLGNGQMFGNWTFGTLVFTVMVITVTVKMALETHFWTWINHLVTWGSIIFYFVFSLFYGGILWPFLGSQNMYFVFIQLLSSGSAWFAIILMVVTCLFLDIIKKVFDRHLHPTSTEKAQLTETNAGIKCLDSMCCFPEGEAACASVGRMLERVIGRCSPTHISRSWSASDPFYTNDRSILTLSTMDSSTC
UniProt O75348, whole entry, looked up: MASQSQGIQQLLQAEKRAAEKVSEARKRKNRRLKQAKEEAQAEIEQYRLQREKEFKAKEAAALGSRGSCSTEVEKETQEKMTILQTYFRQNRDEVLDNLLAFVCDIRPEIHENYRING

Compound: CC1Cc2ccccc2N1C(=O)C1CCCN(C1)C(=O)CCl (mixture of isomers) [TRIM25 ligand 11 (diastereomer mixture)]
Assay: probe-labelled cysteine peptide fold change vs DMSO (competition) (log2 fold change); higher = less target engagement (more negative = stronger competition)
Details: THP-1, incubation time: 4 h
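Also: competitive chemoproteomic profiling in live THP-1 cells with an iodoacetamide desthiobiotin (IA-DTB) probe, comparing probe-labelled peptide intensities in compound-treated cells against DMSO-treated controls.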

Row | Target | probe-labelled cysteine peptide fold change (10 µM) | probe-labelled cysteine peptide fold change (50 µM)
1 | ATP13A1_Q9HD20_755_VVMITGDNPLTACHVAQELHFIEK (UniProt Q9HD20) | 0.203 | 0.0608
2 | ASCC3_Q8N3C0_1343_AYEALYNFSHFNPVQTQIFHTLYHTDCNVLLGAPTGSGK (UniProt Q8N3C0) | -0.0869 | 0.153
3 | ASPH_Q12797_660_FPETTGCR (UniProt Q12797) | 0.049 | -0.0334
4 | ATP6V1B2_P21281_112_KTSCEFTGDILR (UniProt P21281) | 0.00776 | 0.0145
5 | ARV1_Q9H2C2_37_CIECNQEAK (UniProt Q9H2C2) | 0.0273 | 0.199
6 | ASPM_Q8IZT6_51_SPFLCFGDVLLGASR (UniProt Q8IZT6) | 0.0183 | 0.0584
7 | ASAP1_Q9ULH1_219_LFQLQMCEYLIK (UniProt Q9ULH1) | 0.00821 | 0.276
8 | ATP6V1A_P38606_277_YSNSDVIIYVGCGER (UniProt P38606) | -0.0251 | -0.00211
9 | ATM_Q13315_2473_AVENYINCLLSGEEHDMWVFR (UniProt Q13315) | -0.0257 | -0.0723
10 | ASCC3_Q8N3C0_208_FLNEHLQEACTPELKPVEK (UniProt Q8N3C0) | -0.0159 | -0.085
11 | ATN1_P54259_851_APVECPSLGPVPHRPPFEPGSAVATVPPYLGPDTPALR (UniProt P54259) | -0.264 | -0.181
12 | ATP1B3_P54709_250_EVTVECK (UniProt P54709) | -0.00132 | 0.0886
13 | ATAD2_Q6PL18_484_ALANECSQGDKR (UniProt Q6PL18) | -0.121 | 0.0155
14 | ATF7IP_Q6VMQ6_78_DKEEVNGIEEICFDPEGSK (UniProt Q6VMQ6) | -0.0878 | -0.0558
15 | ATF7_P17544_61_NCEEVGLFNELASSFEHEFK (UniProt P17544) | 0.208 | -0.0863
16 | ATG13_O75143_339_THCAATPSSSEDTETVSNSSEGR (UniProt O75143) | -0.413 | -0.126
17 | ATM_Q13315_2991_ALYLQQRPEDETELHPTLNADDQECK (UniProt Q13315) | 0.0559 | -0.197
18 | ATG12_O94817_134_LVLHYCK (UniProt O94817) | 0.159 | 0.17

Retrieved one by one from above, 2 records:
Row | Target | probe-labelled cysteine peptide fold change (10 µM) | probe-labelled cysteine peptide fold change (50 µM)
8 | ATP6V1A_P38606_277_YSNSDVIIYVGCGER (UniProt P38606) | -0.0251 | -0.00211
11 | ATN1_P54259_851_APVECPSLGPVPHRPPFEPGSAVATVPPYLGPDTPALR (UniProt P54259) | -0.264 | -0.181

The listing continues:

Row | Target | probe-labelled cysteine peptide fold change (10 µM) | probe-labelled cysteine peptide fold change (50 µM)
19 | ATP6V1A_P38606_138_WDFTPCK (UniProt P38606) | -0.198 | -0.819
20 | ATP5F1A_P25705_244_LYCIYVAIGQK (UniProt P25705) | -0.282 | 0.146
21 | ATP6V1B2_P21281_425_DHADVSNQLYACYAIGK (UniProt P21281) | -0.00783 | 0.147
22 | ASPSCR1_Q9BZE9_40_VTPSTVLLQVLEDTCR (UniProt Q9BZE9) | 0.121 | -0.1
23 | ATP11B_Q9Y2G3_741_SDSECAEQLR (UniProt Q9Y2G3) | 0.0234 | 0.0768
24 | ATRN_O75882_657_SEAACLAAGPGIR (UniProt O75882) | 0.0494 | 0.0322
25 | ASNA1_O43681_53_TTCSCSLAVQLSK (UniProt O43681) | -0.0478 | 0.0315
26 | ATF7_P17544_409_DCPVTALQK (UniProt P17544) | -0.17 | -0.184
27 | ARSB_P15848_117+121_TGLQHQIIWPCQPSCVPLDEK (UniProt P15848) | 0.0375 | 0.126
28 | ATP11B_Q9Y2G3_170_LDGSCHVTTASLDGETNLK (UniProt Q9Y2G3) | -0.0312 | -0.197
29 | ASH2L_Q9UBL3_581_SCTVSINFGPCFK (UniProt Q9UBL3) | 0.0671 | -0.0169
30 | ARRB1_P49407_140_ACGVDYEVK (UniProt P49407) | -0.0906 | -0.209
31 | ATP2B4_P23634_55_DALTQINVHYGGVQNLCSR (UniProt P23634) | 0.0169 | -0.16
32 | ATAD1_Q8NBU5_137_GVLLYGPPGCGK (UniProt Q8NBU5) | 0.0242 | -0.0414
33 | ATP6V0A2_Q9Y487_58_RCEELER (UniProt Q9Y487) | 0.15 | 0.179
34 | ATAD2_Q6PL18_649_SICAEAALCALR (UniProt Q6PL18) | -0.00173 | 0.0507
35 | ARPC3_O15145_162_WWTCFVK (UniProt O15145) | -0.265 | -0.122
36 | ATP6V1G1_O75348_104_DEVLDNLLAFVCDIRPEIHENYR (UniProt O75348) | 0.164 | -0.0814
